For assay [1], the target named is T1, full-length light chain 4 (MLC-4) (C. elegans) (UniProt Q09510).
T1 sequence: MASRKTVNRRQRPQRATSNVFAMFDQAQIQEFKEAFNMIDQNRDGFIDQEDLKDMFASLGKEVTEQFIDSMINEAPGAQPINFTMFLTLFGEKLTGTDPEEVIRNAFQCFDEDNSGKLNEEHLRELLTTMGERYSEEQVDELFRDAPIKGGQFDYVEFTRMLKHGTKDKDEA
Description: affinity co-purification.

Assay [2] deals with T2, full-length light chain 5 (MLC-5) (C. elegans) (UniProt Q9XVI9).
T2 sequence: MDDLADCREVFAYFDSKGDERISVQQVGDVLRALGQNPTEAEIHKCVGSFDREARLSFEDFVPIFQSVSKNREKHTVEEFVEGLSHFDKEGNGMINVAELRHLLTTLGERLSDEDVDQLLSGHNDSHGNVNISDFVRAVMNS
Description: affinity co-purification.

Results are given in words; binding and its absence hold for the method and conditions named. In cells and extracts the contact can be indirect. Binding calls can cover weak binding; strength is not graded here.

Consider one substance from publication doi:10.1101/2024.05.23.595269.

For the substance “heavy meromyosin (HMM) fragment of C. elegans NMY-2 (1-1364 aa) (domain or fragment)”, the binding entry in assay [1] and in assay [2] was “binds” each time.
